Laboratory results from article PMC3984265.
Results are given in words; binding and its absence hold for the method and conditions named. In cells and extracts the contact can be indirect. Some results given as binding are weak or reduced against the parent protein; the word gives no strength.

Target: Sp1 (human (endogenous in hTERT-airway smooth muscle cells)), P08047
Assay: co-IP; 500 µg lysate of airway smooth muscle cells (1% IGEPAL buffer, 20 mM Tris-HCl pH 7.5, 120 mM NaCl) incubated with 2 µg anti-Sp1 antibody overnight at 4°C, Protein A-agarose; blot for β-catenin; cells untreated or stimulated with TGF-β (2 ng/ml) for 16 hours
Conditions: remark: other sources report otherwise

binding: binds
B1: β-catenin, P35222 1-781 (protein)
chain: MATQADLMELDMAMEPDRKAAVSHWQQQSYLDSGIHSGATTTAPSLSGKGNPEEEDVDTSQVLYEWEQGFSQSFTQEQVADIDGQYAMTRAQRVRAAMFPETLDEGMQIPSTQFDAAHPTNVQRLAEPSQMLKHAVVNLINYQDDAELATRAIPELTKLLNDEDQVVVNKAAVMVHQLSKKEASRHAIMRSPQMVSAIVRTMQNTNDVETARCTAGTLHNLSHHREGLLAIFKSGGIPALVKMLGSPVDSVLFYAITTLHNLLLHQEGAKMAVRLAGGLQKMVALLNKTNVKFLAITTDCLQILAYGNQESKLIILASGGPQALVNIMRTYTYEKLLWTTSRVLKVLSVCSSNKPAIVEAGGMQALGLHLTDPSQRLVQNCLWTLRNLSDAATKQEGMEGLLGTLVQLLGSDDINVVTCAAGILSNLTCNNYKNKMMVCQVGGIEALVRTVLRAGDREDITEPAICALRHLTSRHQEAEMAQNAVRLHYGLPVVVKLLHPPSHWPLIKATVGLIRNLALCPANHAPLREQGAIPRLVQLLVRAHQDTQRRTSMGGTQQQFVEGVRMEEIVEGCTGALHILARDVHNRIVIRGLNTIPLFVQLLYSPIENIQRVAAGVLCELAQDKEAAEAIEAEGATAPLTELLHSRNEGVATYAAAVLFRMSEDKPQDYKKRLSVELTSSLFRTEPMAWNETADLGLDIGAQGEPLGYRQDDPSYRSFHSGGYGQDALGMDPMMEHEMGGHHPGADYPVDGLPDLGHAQDLMDGLPPGDSNQLAWFDTDL
